From US5462958A, “Benzene derivatives and method of treating arteriosclerosis with benzene derivatives” (Eisai Co., Ltd., priority 1992, dated 1995)
At least one structure is not confirmed: it was looked up by name or label, or the drawing left a doubt.

System: ACAT
Assay: ACAT-inhibitory activity in vitro, supernatant of homogenate of the epithelial cell (CaCO2) resulting from human colon cancer (acylation of cholesterol with radiolabeled oleoyl-CoA)
Type: biochemical
Protocol: Representative compounds according to the present invention were examined for ACAT-inhibitory activity according to the in-vitro test method described in Journal of Lipid Research, vol. 24, pp. 1049-1059 (1983) by F. J. Field and S. N. Mathur.
The inhibitory activity of a test compound against the acylation, which was based on the inhibitory activity of the test compound against the enzyme which catalyzes the acylation of cholesterol with oleoyl-CoA, was evaluated by using one of the supernatant of homogenate of the arterial wall of a rabbit, the microsome of the small intestine of a rat and the supernatant of homogenate of the epithelial cell (CaCO2) resulting from human colon cancer as an enzyme source, determining the amount of a radioisotope-labeled cholesterol oleate made from a radiolabeled oleoyl-CoA and (free) cholesterol and comparing the result of the case when a test compound was added with the result of control (the case when no test compound was added).
The data which are given in Table 1 are IC50 values, i.e., the concentrations of test compounds necessary for inhibiting 50% of the enzymatic activity of ACAT.

Compound `CCCCNC(=O)Nc1c(C)cc(O)cc1OCCCn1cnc(-c2ccccc2)c1CC` [Example 1, N-Butyl-N'-[2-[3-(5-ethyl-4-phenyl-1H-imidazol-1-yl)propoxy]-4-hydroxy-6-methylphenyl]urea] has an IC50 of 1100 nM.
